Results taken from paper PMC5315234.
These are yes or no findings as the source states them, for the method shown. Binding seen in cells or lysates may run through a third protein.

T1: aquaporin-4 (mouse (endogenous in brain tissue)), P55088
T1 chain: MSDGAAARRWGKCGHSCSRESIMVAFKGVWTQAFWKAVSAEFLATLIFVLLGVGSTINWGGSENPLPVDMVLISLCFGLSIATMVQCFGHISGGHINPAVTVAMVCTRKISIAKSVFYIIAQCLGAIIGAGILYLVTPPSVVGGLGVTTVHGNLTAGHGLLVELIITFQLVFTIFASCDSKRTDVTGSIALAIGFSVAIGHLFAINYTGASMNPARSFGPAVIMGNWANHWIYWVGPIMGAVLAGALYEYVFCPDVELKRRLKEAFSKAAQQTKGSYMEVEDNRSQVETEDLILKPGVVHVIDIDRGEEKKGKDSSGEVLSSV

T2: glutamate transporter-1 (mouse (endogenous in brain tissue)), P43006
T2 chain: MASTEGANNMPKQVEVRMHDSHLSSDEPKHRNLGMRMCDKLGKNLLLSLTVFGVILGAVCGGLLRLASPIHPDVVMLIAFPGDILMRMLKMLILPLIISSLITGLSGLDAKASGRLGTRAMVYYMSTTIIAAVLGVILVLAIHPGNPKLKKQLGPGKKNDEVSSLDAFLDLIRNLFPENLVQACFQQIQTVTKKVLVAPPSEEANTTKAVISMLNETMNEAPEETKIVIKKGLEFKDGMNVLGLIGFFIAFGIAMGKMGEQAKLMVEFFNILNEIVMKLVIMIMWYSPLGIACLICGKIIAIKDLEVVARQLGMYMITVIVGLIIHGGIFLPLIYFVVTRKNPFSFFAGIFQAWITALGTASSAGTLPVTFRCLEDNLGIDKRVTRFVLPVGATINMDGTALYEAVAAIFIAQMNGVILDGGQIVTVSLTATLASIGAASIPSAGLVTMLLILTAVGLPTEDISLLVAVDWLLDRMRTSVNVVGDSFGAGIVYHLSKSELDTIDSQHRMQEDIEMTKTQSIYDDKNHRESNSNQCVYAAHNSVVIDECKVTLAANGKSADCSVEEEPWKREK


Columns and labels:
[1] = biological target: T1, aquaporin-4 (mouse (endogenous in brain …)); test: co-IP; whole brain homogenate (50 µg protein) of C57BL/6 and CD1 wild-type mice; 1% NP-40 substitute lysis buffer (50 mM Tris-HCl pH 8, 150 mM NaCl); anti-AQP4 or anti-GLT1 overnight at 4℃, protein A agarose beads 3 hr at 4℃; Western blot of precipitate and supernatant; conditions: remark: other sources report otherwise
[2] = biological target: T2, glutamate transporter-1 (mouse …); test: as above; conditions: remark: other sources report otherwise

| binding [1] | binding [2] | Binder |
| --- | --- | --- |
| no binding | – | glutamate transporter-1, P43006 1-572 (protein) MASTEGANNMPKQVEVRMHDSHLSSDEPKHRNLGMRMCDKLGKNLLLSLTVFGVILGAVCGGLLRLASPIHPDVVMLIAFPGDILMRMLKMLILPLIISSLITGLSGLDAKASGRLGTRAMVYYMSTTIIAAVLGVILVLAIHPGNPKLKKQLGPGKKNDEVSSLDAFLDLIRNLFPENLVQACFQQIQTVTKKVLVAPPSEEANTTKAVISMLNETMNEAPEETKIVIKKGLEFKDGMNVLGLIGFFIAFGIAMGKMGEQAKLMVEFFNILNEIVMKLVIMIMWYSPLGIACLICGKIIAIKDLEVVARQLGMYMITVIVGLIIHGGIFLPLIYFVVTRKNPFSFFAGIFQAWITALGTASSAGTLPVTFRCLEDNLGIDKRVTRFVLPVGATINMDGTALYEAVAAIFIAQMNGVILDGGQIVTVSLTATLASIGAASIPSAGLVTMLLILTAVGLPTEDISLLVAVDWLLDRMRTSVNVVGDSFGAGIVYHLSKSELDTIDSQHRMQEDIEMTKTQSIYDDKNHRESNSNQCVYAAHNSVVIDECKVTLAANGKSADCSVEEEPWKREK |
| – | no binding | aquaporin-4, P55088 1-323 (protein) MSDGAAARRWGKCGHSCSRESIMVAFKGVWTQAFWKAVSAEFLATLIFVLLGVGSTINWGGSENPLPVDMVLISLCFGLSIATMVQCFGHISGGHINPAVTVAMVCTRKISIAKSVFYIIAQCLGAIIGAGILYLVTPPSVVGGLGVTTVHGNLTAGHGLLVELIITFQLVFTIFASCDSKRTDVTGSIALAIGFSVAIGHLFAINYTGASMNPARSFGPAVIMGNWANHWIYWVGPIMGAVLAGALYEYVFCPDVELKRRLKEAFSKAAQQTKGSYMEVEDNRSQVETEDLILKPGVVHVIDIDRGEEKKGKDSSGEVLSSV |
